Source: patent publication EP0222274A1, “2-Hydroxybenzamides” (NIHON TOKUSHU NOYAKU SEIZO K.K., priority 1985, dated 1987)
At least one read-out could not be matched to a standard name with certainty.

Test system: Plasmodiophora brassicae
Test: Control of clubroot (Kohlhernie) in "Komatsuna" grown in infected soil, dust mixed into soil
Assay type: in vivo
Conditions: 4 weeks at 20°C
Excerpt: Test der Bekämpfung von Kohlhernie bei "Komatsuna" (einer Varietät chinesischen Kohls):
Präparat einer aktiven Verbindung:
Aktive Verbindung: 1,5 Teile; Isopropylhydrogenphosphat (PAP): 0,5 Teile; Ton-Pulver: 98 Teile.
Die oben angegebenen Stoffe wurden pulverisiert und vermischt, wodurch ein Stäubemittel erhalten wurde.
Mit Plasmodiophora brassicae infizierte Erde wurde in unglasierte Töpfe mit einem Durchmesser von 21 cm gefüllt, und ein Stäubemittel einer Verbindung gemäß der vorliegenden Erfindung, das wie oben angegeben hergestellt worden war, wurde in einer vorher festgelegten Konzentration gleichmäßig mit der Erde vermischt.
Samen von "Komatsuna" (Varietät: Misugi) wurden in einer Menge von 20 Körnern pro Topf eingesät. Die Töpfe wurden 4 Wochen in einem auf 20°C gehaltenen klimatisierten Gewächshaus gehalten. Dann wurden die Pflanzen ausgegraben, und der Krankheitszustand wurde nach dem folgenden Maßstab bewertet. Der Erkrankungs-Index und das Verhältnis der erkrankten Pflanzen wurden berechnet.
3: L₁ = Zahl der Pflanzen, deren Wurzeln durch das Auftreten der Kohlhernie (Kropfkrankheit) sehr stark vergrößert worden waren; 2: L₂ - Zahl der Pflanzen, bei denen Kohlhernie auftrat, jedoch auf die Pfahlwurzeln beschränkt war; 1: L₃ = Zahl der Pflanzen, bei denen geringsfügiges Auftreten von Kohlhernie beobachtet wurde; 0: L₄ = Zahl der gesunden Pflanzen. [formula]

Structure (SMILES): CCOC(NC(=O)c1ccccc1O)C(Cl)(Cl)Cl (stereo not drawn) [A-1]
- Erkrankungs-Index (Menge des Wirkstoffs 5 kg/ha): 81,7%
- Verhältnis der erkrankten Pflanzen (Menge des Wirkstoffs 5 kg/ha): 95%
- Erkrankungs-Index (Menge des Wirkstoffs 10 kg/ha): 80%
- Verhältnis der erkrankten Pflanzen (Menge des Wirkstoffs 10 kg/ha): 85%
- Erkrankungs-Index (Menge des Wirkstoffs 20 kg/ha): 33,3%
- Verhältnis der erkrankten Pflanzen (Menge des Wirkstoffs 20 kg/ha): 45%

Structure (SMILES): O=C(NC(OCCBr)C(Cl)(Cl)Cl)c1ccccc1O (stereo not drawn) [B-1]
- Erkrankungs-Index (Menge des Wirkstoffs 5 kg/ha): 91,7%
- Verhältnis der erkrankten Pflanzen (Menge des Wirkstoffs 5 kg/ha): 100%
- Erkrankungs-Index (Menge des Wirkstoffs 10 kg/ha): 83,3%
- Verhältnis der erkrankten Pflanzen (Menge des Wirkstoffs 10 kg/ha): 90%
- Erkrankungs-Index (Menge des Wirkstoffs 20 kg/ha): 51,7%
- Verhältnis der erkrankten Pflanzen (Menge des Wirkstoffs 20 kg/ha): 65%
